The supplement of paper PMC5949888
Most values lie at the floor of the assay. Slopes are relative: functional sequences can read slightly below zero.

tested on: Saccharomyces cerevisiae PS128 hsf1 delta, HSF1(1-493) fusion; assay: growth estimate (transactivation domain function in HSF1 fusion, heat-shock survival) (a.u. (slope of normalised read count over time)); higher = stronger growth at 37°C, i.e. more transactivation activity; conditions: library: random library

Substance	growth estimate
SLRICSQWDWNVPSPILGQR	< -0.25
VPTVHVSDTGYMREE	< -0.25
GRPKQSSGF	-0.231
SLSPAIRNPWVGLGWSRRTL	< -0.25
WGHTIHHQQILRIVAVVV	< -0.25
CRVWTGRGIYLR	< -0.25
NLEWIIEKGPCS	< -0.25
RCPDQVSYSWEQLVRPMNPL	< -0.25
KRVTRSRYVERFAMALDSVD	< -0.25
HPYDWKRVPERQ	< -0.25
CRLFPSLKCSGRSVTARKVR	< -0.25
PGAGVSLNTHGTRDMYICAV	< -0.25
SSAKRAGQDLASPGSRRA	< -0.25
PQALTF	< -0.25
VRLRLAYKSFRGYISFALRS	< -0.25
IVYTDASRSVSRRVSGSLSS	< -0.25
RGLHLWRRCADTRSHRSPPR	< -0.25
YAIWEME	< -0.25
KDREVLNRRRDIY	< -0.25
TRFAKHATTWV	< -0.25
VVR	< -0.25
PTGYEHG	< -0.25
PVPNSCPRGSGCAWTFSRP	< -0.25
AHRYQPRSRPLSRSRLQ	< -0.25
MILRHSCPFNTMRPTDPPRR	< -0.25

Substance	growth estimate
QQLTDRPRRRLP	< -0.25
GREVLKSIVRFDTSILHSPE	< -0.25
RFDNISRQRAFFNPGKISVP	< -0.25
QVYRSGGLTTDRRFVMRRWM	< -0.25
KQRGHFLSRSSLIVARRRWF	< -0.25
TLVNLTHLVHVRIHLPLQLF	< -0.25
CGPYKCRSGTGAPRFGQ	< -0.25
VCKKNIIDLPTEVLHLFACS	< -0.25
CSSCILASLRERFVTYQ	< -0.25
ALATMSISTLEYIVLPNGIS	< -0.25
TAIRASEVLTRFVGIFRLFD	< -0.25
KNAKIVTCRGNMSGLCLTLG	< -0.25
LKIARLGVTRQSRHILAF	< -0.25
FALYA	< -0.25
CVLTVDWIQSGPLMSNLSYV	< -0.25
VCKVPTYPVGLILV	< -0.25
SER	< -0.25
LLRFNAGKSVRLNAVGPARE	< -0.25
IYQVLLGGVV	< -0.25
PSRVKGAPRLSDMKLRSGVV	< -0.25
ISWFGLSTRVRMSMLSLARV	< -0.25
AFIS	< -0.25
KSKTAVCQSRATIELMGHRW	< -0.25
CLSQPPGWGRGYGDNDSGAV	< -0.25
ISLRF	< -0.25

As a working copy, part of the list above:
Substance	growth estimate
QVYRSGGLTTDRRFVMRRWM	< -0.25
KQRGHFLSRSSLIVARRRWF	< -0.25
TLVNLTHLVHVRIHLPLQLF	< -0.25

(cont.)

Substance	growth estimate
LQGIALTRSLEEAEFGFQVA	< -0.25
VGLSVRH	< -0.25
LKVES	< -0.25
IMSRGQVRTGCLDACN	< -0.25
RGLNLSSGIGCGDIDRWSLE	< -0.25
VSK	< -0.25
VPALVVSRALLGNVGSAPRV	< -0.25
SLPLLMLHLGMLRRNAQRIV	< -0.25
RQPSDTWYEISITGAAARAW	-0.246
LPPGLWYFPFLLCNCNQHNE	< -0.25
RSSAVSEFFARLSSGRASPT	< -0.25
GRVVRGRF	< -0.25
NRVL	< -0.25
TFSPDQPPWAELKTYLRSRT	< -0.25
LRAVFHARRAHSTPERVNFL	< -0.25
IVLPIWSEDVLNSKMNEPG	< -0.25
SFAT	< -0.25
TPMGRLANSHEWNEVQDYIH	< -0.25
STTCTSYER	< -0.25
ARLIGTRALRLWMIRI	< -0.25
CFRVDFTVG	-0.228
MVWS	< -0.25
GNKKIDPHLVQLSYRQWRHT	< -0.25
APARKGLQGVQKKLRRRK	< -0.25
RRIVSVAATRGWAMLGPSRI	< -0.25

Substance	growth estimate
RQNGQWG	< -0.25
TTCSSPVSVAIMATLHRVQG	< -0.25
ATLFGKIHHYVGFQQGDPLA	< -0.25
IGDW	< -0.25
LGEGSRVAYPEEARPTRGGD	-0.009
QRFSLLLLIGPIPSKYSSTQ	< -0.25
SVKSY	< -0.25
YRGYRR	< -0.25
PRCIGPDGG	< -0.25
LNLVRDEFVYE	< -0.25
VDRHELWCICSR	< -0.25
MRKCILLGLSFWCHPSH	< -0.25
TARL	< -0.25
CLSGTL	< -0.25
GGTEVPTGVGRPAFRGRLMV	< -0.25
EGTTIL	< -0.25
LYAVLDSVRRGS	< -0.25
KFRENEADVVSPNV	< -0.25
EMVHASVHVVRFLGDWRTLR	< -0.25
GYPTIPRRS	< -0.25
GFPATGKVVVTSRIPHLASQ	< -0.25
ESECD	< -0.25
RTVLCIVNVYMTC	< -0.25
DPRRTKRVLCPVHT	< -0.25
TTCVWAEDGRYQYG	< -0.25

Part of the list above, in markdown:

| Substance | growth estimate |
| --- | --- |
| VDRHELWCICSR | < -0.25 |
| MRKCILLGLSFWCHPSH | < -0.25 |
| TARL | < -0.25 |
| CLSGTL | < -0.25 |
| GGTEVPTGVGRPAFRGRLMV | < -0.25 |
| EGTTIL | < -0.25 |
| LYAVLDSVRRGS | < -0.25 |

Remaining list, next part.

Substance	growth estimate
SRTETPGY	< -0.25
TDKSQGRQTCSSLSVRRSLA	< -0.25
VVYLYLPFKDVDS	< -0.25
ALELFCRLGTERFKRP	< -0.25
RSGV	< -0.25
ANVFRAGLGSRRSGF	< -0.25
VTLLFVVVREPYNLAGV	< -0.25
VPNAR	< -0.25
YGVGSDRGLRCRPSASS	< -0.25
TPRQYHNAA	-0.245
SHGVSESVGLVTIKKGPCAS	< -0.25
HGS	< -0.25
DEFYTLRRRFSRPPLFLSVQ	< -0.25
HDCSYLPYYQER	< -0.25
CRVAEAS	< -0.25
RGAACVACTRSFGGYIR	< -0.25
SRRRISLPRPNG	< -0.25
YITSASFGQPAHGCDASFGP	< -0.25
NPEISGSLFNQGHASAESIK	< -0.25
RFECRLRRLCNCLITSVLGC	< -0.25
VGLNIMKN	< -0.25
VGERLPRDMRRSESQRENGQ	< -0.25
SHGKPWTTFVNCHVLHPTSA	< -0.25
CENLSLPAS	< -0.25
PWGSGMINRTLTNGGLPQPA	< -0.25

Substance	growth estimate
PAETR	< -0.25
QLQYTL	< -0.25
FLVDRTSTHYVMLETRTRAT	< -0.25
WWSSSAGLPNGTHSSTIGHG	< -0.25
VESVYVFSSGSMVMMPLGHI	< -0.25
IGYGGTR	< -0.25
QSCVFRVVSVQKASVCYPTV	< -0.25
ICF	< -0.25
TLDSSAEALGPRQSAVVSHQ	< -0.25
VREGPVLGDARARVSSVWQV	< -0.25
PLLIRDVQDHFKSTPKPLNL	< -0.25
LQRVALMRGEPIS	< -0.25
VGDIVLHAKLRGRQNIPRNR	< -0.25
RSLLSKLSAFCFEMRACLYL	< -0.25
WQLTPAGPHALSTWCRPSER	< -0.25
WAEIEWRINHRSCDVLFACV	-0.243
PWD	< -0.25
GELCRSETLCCEVPTFTTAG	< -0.25
CGSRHGRVPTLVRVPGQAQL	< -0.25
VLSALAFDLN	< -0.25
